Experimental data reported in patent US10688099B2, “Methods for modulating the amount of RNA transcripts” (PTC Therapeutics, Inc., priority 2013, dated 2020).
The source gives many values for each of these; only a part stands here.

Tested on: RNA isoforms in PNN 1-46 SMA type I patient-derived fibroblasts
Assay: RNA Abundance Modulation (RNA isoform abundance, iFPM, HiSeq RNA sequencing)
Type: cell-based, human
Conditions: 3 μM
Description: Cells from a cell line of interest are cultured in conditions sufficient to yield the number of cells capable of generating enough RNA for subsequent sequencing steps. Cells from the tested cell line are contacted with a compound described herein.
To culture said cells, they are seeded, at appropriate concentrations in a volume of media in a cell culture container and incubated for 4, 5, 6, 7, 8, 9, 10, or more hours. A concentrated solution of compound in a vehicle (e.g., DMSO) is then added in sufficient volume to result in the intended final concentration of the compound, for example 100 nM, 500 nM, 1 μM, 5 μM, 10 μM, 15 μM, 20 μM, or more. The cells may also be treated with vehicle alone, as a control. A number of replicates of each concentration or control may be made (e.g., 2 replicates). The cells are then incubated at a constant temperature appropriate for cell culture of the particular cell line (e.g., 37° C.) for 6, 12, 18, 24, 48, or more hours. After incubation, the growth medium is removed and the cells are washed with the appropriate buffer (e.g., PBS). Cells are then removed from adherence to the cell culture container by treatment with a solution containing trypsin, and the trypsin subsequently quenched with the appropriate volume of buffer (e.g., DMEM-FBS). The cells are then pelleted with gentle centrifugation (e.g., ≤90×g centrifugal force) and resuspended in a buffer to lyse the cells for extraction of RNA. The cell lysates may then be frozen (e.g., at −80° C.) or, alternately, may immediately be used in a procedure to purify the RNA (e.g. by use of the RNEASY PLUS® minikit). The RNA from cell lysates is eluted in the appropriate volume of buffer (e.g., RNEASE-FREE H2O®). The resulting purified RNA may then be sequenced (e.g., using RNASeq) or analyzed using a human exon array (e.g., by GENECHIP® human exon array) to determine changes in the RNA levels in those cells treated with compound compared to those cells treated only with DMSO. The purified RNA may also be quantified by other methods known in the art.
Using the RNA data obtained from sequencing, exon array, or other methods, a statistical analysis can reveal changes in the RNA levels of compound-treated compared with control. For example, t-test p-values may be calculated for the data obtained through sequencing and exon array methods in order to compare compound-treated cells to those treated with the DMSO control. […] Analysis of the sequencing and exon array data may then also yield predictions about the cause of the aberrant amount of an RNA transcript in the cells (e.g., perturbation of RNA splicing, RNA transcription, or RNA stability). These predictions may be further confirmed by methods known in the art. For example, RT-PCR and RT-qPCR may be used to confirm the change in amount of RNA transcripts for one or more particular transcripts of interest.
Following the methods described above in Example 1, PNN 1-46 SMA type I patient-derived fibroblasts were treated with 300 nM or 3 μM Compounds 774 and 808 in 0.5% DMSO.
700,000 cells were seeded in 10 mL of medium (DMEM plus 10% FBS) in a T-75 flask. Cells were allowed to attach for at least 4 hrs, after which 50 μL of a 200× compound solution (100% DMSO) was added to each well, and the plate was incubated at 37° C. for 24 hrs.
At the end of the incubation period, the supernatant was removed and the cells where washed with PBS. TrypLE (Invitrogen) express solution was added (e.g. 1.5 mL per one T75 flask). The flasks were incubated for 3 to 5 min at 37° C. The trypsin was then quenched, e.g., by adding 10 mL DMEM-FBS.
Next, the cells were pelleted using gentle centrifugation without exceeding 90×g centrifugal force. The supernatant was removed and the cell pellet was re-suspended in 600 μL RLT buffer (the RLT buffer was supplemented with beta-mercaptoethanol according to the RNeasy protocol manual) by pipetting up and down until the pellet was completely dissolved […]

With CCc1nc(C)cn2nc(-c3cc(=O)n4cc(C5CCN(C)CC5)cc(C)c4n3)cc12 [Compound 774] the “ave Cpd” value (HMGA1 M23619) was 4589 iFPM, the “FC (x + 1)” value (HMGA1 NM_002131) was 11.6543 and the “L2FC (x + 1)” value (HMGA1 NM_002131) was 3.543. The “L2abs (Cpd-DMSO)” value (HMGA1 NM_002131) was 3.41, the “abs (Cpd-DMSO)” value (HMGA1 NM_002131) was 11 iFPM and the “amp FC (x + 1)” value (HMGA1 NM_002131) was 11.65. The “ave Cpd” value (HMGA1 NM_002131) was 11 iFPM, the “FC (x + 1)” value (HMGA1 NM_145899) was 1.2617 and the “L2FC (x + 1)” value (HMGA1 NM_145899) was 0.335. The “L2abs (Cpd-DMSO)” value (HMGA1 NM_145899) was 9.41, the “abs (Cpd-DMSO)” value (HMGA1 NM_145899) was 680 iFPM and the “amp FC (x + 1)” value (HMGA1 NM_145899) was 1.26. For the same compound, the “ave Cpd” value (HMGA1 NM_145899) was 3278 iFPM, the “FC (x + 1)” value (HMGA1 NM_145901) was 1.2521 and the “L2FC (x + 1)” value (HMGA1 NM_145901) was 0.324. The “L2abs (Cpd-DMSO)” value (HMGA1 NM_145901) was 5.57, the “abs (Cpd-DMSO)” value (HMGA1 NM_145901) was 47 iFPM and the “amp FC (x + 1)” value (HMGA1 NM_145901) was 1.25. The “ave Cpd” value (HMGA1 NM_145901) was 235 iFPM, the “FC (x + 1)” value (HMGA1 NM_145903) was 1.9030 and the “L2FC (x + 1)” value (HMGA1 NM_145903) was 0.928. The “L2abs (Cpd-DMSO)” value (HMGA1 NM_145903) was 6.80, the “abs (Cpd-DMSO)” value (HMGA1 NM_145903) was 111 iFPM and the “amp FC (x + 1)” value (HMGA1 NM_145903) was 1.90. For the same compound, the “ave Cpd” value (HMGA1 NM_145903) was 233 iFPM, the “FC (x + 1)” value (HMGA1 NM_145905) was 0.6341 and the “L2FC (x + 1)” value (HMGA1 NM_145905) was −0.657. For the same compound, the “L2abs (Cpd-DMSO)” value (HMGA1 NM_145905) was 5.13, the “abs (Cpd-DMSO)” value (HMGA1 NM_145905) was 35 iFPM and the “amp FC (x + 1)” value (HMGA1 NM_145905) was 1.58. The “ave Cpd” value (HMGA1 NM_145905) was 60 iFPM, the “FC (x + 1)” value (HMGB1 AK304506) was 0.3987 and the “L2FC (x + 1)” value (HMGB1 AK304506) was −1.327. The “L2abs (Cpd-DMSO)” value (HMGB1 AK304506) was 10.68, the “abs (Cpd-DMSO)” value (HMGB1 AK304506) was 1639 iFPM and the “amp FC (x + 1)” value (HMGB1 AK304506) was 2.51. For the same compound, the “ave Cpd” value (HMGB1 AK304506) was 1086 iFPM, the “FC (x + 1)” value (HMGB1 BX647267) was 0.7428 and the “L2FC (x + 1)” value (HMGB1 BX647267) was −0.429. The “L2abs (Cpd-DMSO)” value (HMGB1 BX647267) was 5.77, the “abs (Cpd-DMSO)” value (HMGB1 BX647267) was 55 iFPM and the “amp FC (x + 1)” value (HMGB1 BX647267) was 1.35. For the same compound, the “ave Cpd” value (HMGB1 BX647267) was 157 iFPM, the “FC (x + 1)” value (HMGB1 CR749614) was 0.7119 and the “L2FC (x + 1)” value (HMGB1 CR749614) was −0.490. The “L2abs (Cpd-DMSO)” value (HMGB1 CR749614) was 5.57, the “abs (Cpd-DMSO)” value (HMGB1 CR749614) was 47 iFPM and the “amp FC (x + 1)” value (HMGB1 CR749614) was 1.40. The “ave Cpd” value (HMGB1 CR749614) was 116 iFPM, the “FC (x + 1)” value (HMGB1 NM_002128) was 1.0583 and the “L2FC (x + 1)” value (HMGB1 NM_002128) was 0.082. The “L2abs (Cpd-DMSO)” value (HMGB1 NM_002128) was 9.81, the “abs (Cpd-DMSO)” value (HMGB1 NM_002128) was 899 iFPM and the “amp FC (x + 1)” value (HMGB1 NM_002128) was 1.06. The “ave Cpd” value (HMGB1 NM_002128) was 16310 iFPM, the “FC (x + 1)” value (HMGCR AK296499) was 1.0215 and the “L2FC (x + 1)” value (HMGCR AK296499) was 0.031. For the same compound, the “L2abs (Cpd-DMSO)” value (HMGCR AK296499) was −0.44, the “abs (Cpd-DMSO)” value (HMGCR AK296499) was 1 iFPM and the “amp FC (x + 1)” value (HMGCR AK296499) was 1.02. The “ave Cpd” value (HMGCR AK296499) was 34 iFPM and the “FC (x + 1)” value (HMGCR AY429542) was 1.0000.
